Measurements: the supplement of paper PMC8728848
The other results are listed elsewhere or left out.

Assays:
Test in all cases: glycan array binding signal (z-score within array); higher = stronger binding
Conditions in all cases: glycan notation: IUPAC condensed, linker removed
[1] = target: Gal(b1-4)GlcNAc(b1-3)Gal(b1-4)GlcNAc(b1-2)[Gal(b1-4)GlcNAc(b1-3)Gal(b1-4)GlcNAc(b1-6)]Man(a1-6)[Gal(b1-4)GlcNAc(b1-3)Gal(b1-4)GlcNAc(b1-2)Man(a1-3)]Man(b1-4)GlcNAc(b1-4)GlcNAc
In short: (§1)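 From the Consortium for Functional Glycomics database, 3228 arrays were curated, keeping only those whose protein sequence was available. Binding is given as a within-array Z-score averaged across arrays sharing a protein sequence and across linkers. Negative Z-scores can be read as non-binding.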

[2] = target: Gal(b1-4)GlcNAc(b1-3)Gal(b1-4)GlcNAc(b1-2)[Gal(b1-4)GlcNAc(b1-3)Gal(b1-4)GlcNAc(b1-6)]Man(a1-6)[Gal(b1-4)GlcNAc(b1-3)Gal(b1-4)GlcNAc(b1-2)Man(a1-3)]Man(b1-4)GlcNAc(b1-4)[Fuc(a1-6)]GlcNAc
In short: as §1

[3] = target: Gal(b1-4)GlcNAc(b1-3)Gal(b1-4)GlcNAc(b1-3)Gal(b1-4)GlcNAc
In short: as §1

[4] = target: Gal(b1-4)GlcNAc(b1-3)Gal(b1-4)GlcNAc(b1-3)Gal(b1-4)GlcNAc(b1-2)Man(a1-3)[Gal(b1-4)GlcNAc(b1-3)Gal(b1-4)GlcNAc(b1-3)Gal(b1-4)GlcNAc(b1-2)Man(a1-6)]Man(b1-4)GlcNAc(b1-4)GlcNAc
In short: as §1

[5] = target: Gal(b1-4)GlcNAc(b1-3)Gal(b1-4)GlcNAc(b1-3)Gal(b1-4)GlcNAc(b1-2)Man(a1-3)[Gal(b1-4)GlcNAc(b1-3)Gal(b1-4)GlcNAc(b1-3)Gal(b1-4)GlcNAc(b1-2)Man(a1-6)]Man(b1-4)GlcNAc(b1-4)[Fuc(a1-6)]GlcNAc
In short: as §1

[6] = target: Gal(b1-4)GlcNAc(b1-3)Gal(b1-4)GlcNAc(b1-3)Gal(b1-4)GlcNAc(b1-2)[Gal(b1-4)GlcNAc(b1-3)Gal(b1-4)GlcNAc(b1-3)Gal(b1-4)GlcNAc(b1-6)]Man(a1-6)[Gal(b1-4)GlcNAc(b1-3)Gal(b1-4)GlcNAc(b1-3)Gal(b1-4)GlcNAc(b1-2)Man(a1-3)]Man(b1-4)GlcNAc(b1-4)[Fuc(a1-6)]GlcNAc
In short: as §1

[7] = target: Gal(b1-4)GlcNAc(b1-3)Gal(b1-4)GlcNAc(b1-3)Gal(b1-4)GlcNAc(b1-3)Gal(b1-4)GlcNAc(b1-2)Man(a1-3)[Gal(b1-4)GlcNAc(b1-3)Gal(b1-4)GlcNAc(b1-3)Gal(b1-4)GlcNAc(b1-3)Gal(b1-4)GlcNAc(b1-2)Man(a1-6)]Man(b1-4)GlcNAc(b1-4)GlcNAc
In short: as §1

[8] = target: Gal(b1-4)GlcNAc(b1-3)Gal(b1-4)GlcNAc(b1-3)Gal(b1-4)GlcNAc(b1-3)Gal(b1-4)GlcNAc(b1-2)Man(a1-3)[Gal(b1-4)GlcNAc(b1-3)Gal(b1-4)GlcNAc(b1-3)Gal(b1-4)GlcNAc(b1-3)Gal(b1-4)GlcNAc(b1-2)Man(a1-6)]Man(b1-4)GlcNAc(b1-4)[Fuc(a1-6)]GlcNAc
In short: as §1

[9] = target: Gal(b1-4)GlcNAc(b1-3)Gal(b1-4)GlcNAc(b1-3)Gal(b1-4)GlcNAc(b1-3)Gal(b1-4)GlcNAc(b1-2)[Gal(b1-4)GlcNAc(b1-3)Gal(b1-4)GlcNAc(b1-3)Gal(b1-4)GlcNAc(b1-3)Gal(b1-4)GlcNAc(b1-6)]Man(a1-6)[Gal(b1-4)GlcNAc(b1-3)Gal(b1-4)GlcNAc(b1-3)Gal(b1-4)GlcNAc(b1-3)Gal(b1-4)GlcNAc(b1-2)Man(a1-3)]Man(b1-4)GlcNAc(b1-4)[Fuc(a1-6)]GlcNAc
In short: as §1

[10] = target: Gal(b1-4)GlcNAc(b1-3)Gal(b1-4)GlcNAc(b1-3)Gal(b1-4)GlcNAc(b1-3)Gal(b1-4)GlcNAc(b1-3)Gal(b1-4)GlcNAc(b1-2)Man(a1-3)[Gal(b1-4)GlcNAc(b1-3)Gal(b1-4)GlcNAc(b1-3)Gal(b1-4)GlcNAc(b1-3)Gal(b1-4)GlcNAc(b1-3)Gal(b1-4)GlcNAc(b1-2)Man(a1-6)]Man(b1-4)GlcNAc(b1-4)GlcNAc
In short: as §1

[11] = target: Gal(b1-4)GlcNAc(b1-3)Gal(b1-4)GlcNAc(b1-3)Gal(b1-4)GlcNAc(b1-3)Gal(b1-4)GlcNAc(b1-3)Gal(b1-4)GlcNAc(b1-2)Man(a1-3)[Gal(b1-4)GlcNAc(b1-3)Gal(b1-4)GlcNAc(b1-3)Gal(b1-4)GlcNAc(b1-3)Gal(b1-4)GlcNAc(b1-3)Gal(b1-4)GlcNAc(b1-2)Man(a1-6)]Man(b1-4)GlcNAc(b1-4)[Fuc(a1-6)]GlcNAc
In short: as §1

[12] = target: Gal(b1-4)GlcNAc(b1-3)Gal(b1-4)GlcNAc(b1-3)Gal(b1-4)GlcNAc(b1-3)Gal(b1-4)GlcNAc(b1-3)Gal(b1-4)GlcNAc(b1-2)[Gal(b1-4)GlcNAc(b1-3)Gal(b1-4)GlcNAc(b1-3)Gal(b1-4)GlcNAc(b1-3)Gal(b1-4)GlcNAc(b1-3)Gal(b1-4)GlcNAc(b1-6)]Man(a1-6)[Gal(b1-4)GlcNAc(b1-3)Gal(b1-4)GlcNAc(b1-3)Gal(b1-4)GlcNAc(b1-3)Gal(b1-4)GlcNAc(b1-3)Gal(b1-4)GlcNAc(b1-2)Man(a1-3)]Man(b1-4)GlcNAc(b1-4)[Fuc(a1-6)]GlcNAc
In short: as §1

[13] = target: Gal(b1-4)GlcNAc(b1-3)Gal(b1-4)GlcNAc(b1-3)Gal(b1-4)GlcNAc(b1-3)Gal(b1-4)GlcNAc(b1-3)Gal(b1-4)GlcNAc(b1-3)Gal(b1-4)GlcNAc(b1-2)Man(a1-3)[Gal(b1-4)GlcNAc(b1-3)Gal(b1-4)GlcNAc(b1-3)Gal(b1-4)GlcNAc(b1-3)Gal(b1-4)GlcNAc(b1-3)Gal(b1-4)GlcNAc(b1-3)Gal(b1-4)GlcNAc(b1-2)Man(a1-6)]Man(b1-4)GlcNAc(b1-4)GlcNAc
In short: as §1

[14] = target: Gal(b1-4)GlcNAc(b1-3)Gal(b1-4)GlcNAc(b1-3)GalNAc
In short: as §1

[15] = target: Gal(b1-4)GlcNAc(b1-3)Gal(b1-4)GlcNAc(b1-3)[Gal(b1-4)GlcNAc(b1-3)Gal(b1-4)GlcNAc(b1-6)]GalNAc
In short: as §1

[16] = target: Gal(b1-4)GlcNAc(b1-3)Gal(b1-4)GlcNAc(b1-6)[Gal(b1-3)]GalNAc
In short: as §1

[17] = target: Gal(b1-4)GlcNAc(b1-3)Gal(b1-4)[Fuc(a1-3)]GlcNAc(b1-3)Gal(b1-4)[Fuc(a1-3)]GlcNAc
In short: as §1

[18] = target: Gal(b1-4)GlcNAc(b1-3)GalNAc
In short: as §1

[19] = target: Gal(b1-4)GlcNAc(b1-3)[Fuc(a1-3)GlcNAc(b1-6)]Gal(b1-4)Glc
In short: as §1

[20] = target: Gal(b1-4)GlcNAc(b1-3)[Gal(b1-4)GlcNAc(b1-6)]Gal(b1-4)GlcNAc
In short: as §1

[21] = target: Gal(b1-4)GlcNAc(b1-3)[GlcNAc(b1-6)]Gal(b1-4)GlcNAc
In short: as §1

[22] = target: Gal(b1-4)GlcNAc(b1-6)Gal(b1-4)GlcNAc
In short: as §1

[23] = target: Gal(b1-4)GlcNAc(b1-6)GalNAc
In short: as §1

[24] = target: Gal(b1-4)GlcNAc(b1-6)[Gal(b1-3)]GalNAc
In short: as §1

[25] = target: Gal(b1-4)GlcNAc(b1-6)[Gal(b1-4)GlcNAc(b1-3)]GalNAc
In short: as §1

Gal(b1-4)GlcNAc6P = target: Gal(b1-4)GlcNAc6P
In short: as §1

Gal(b1-6)Gal = target: Gal(b1-6)Gal
In short: as §1

Gal3S(b1-3)GalNAc = target: Gal3S(b1-3)GalNAc
In short: as §1

Gal3S(b1-3)GlcNAc = target: Gal3S(b1-3)GlcNAc
In short: as §1

[26] = target: Gal3S(b1-3)[Fuc(a1-4)]GlcNAc
In short: as §1

B1: Thrombomodulin Extracellular (Mus musculus), P15306 (protein)
chain: MLGIFFLGVLAPASLGLSALAKLQPTGSQCVEHECFALFQGPATFLDASQACQRLQGHLMTVRSSVAADVISLLLSQSSMDLGPWIGLQLPQGCDDPVHLGPLRGFQWVTGDNHTSYSRWARPNDQTAPLCGPLCVTVSTATEAAPGEPAWEEKPCETETQGFLCEFYFTASCRPLTVNTRDPEAAHISSTYNTPFGVSGADFQTLPVGSSAAVEPLGLELVCRAPPGTSEGHWAWEATGAWNCSVENGGCEYLCNRSTNEPRCLCPRDMDLQADGRSCARPVVQSCNELCEHFCVSNAEVPGSYSCMCETGYQLAADGHRCEDVDDCKQGPNPCPQLCVNTKGGFECFCYDGYELVDGECVELLDPCFGSNCEFQCQPVSPTDYRCICAPGFAPKPDEPHKCEMFCNETSCPADCDPNSPTVCECPEGFILDEGSVCTDIDECSQGECFTSECRNFPGSYECICGPDTALAGQISKDCDPIPVREDTKEEEGSGEPPVSPTPGSPTGPPSARPVHSGVLIGISIASLSLVVALLALLCHLRKKQGAARAELEYKCASSAKEVVLQHVRTDRTLQKF
[1]
  glycan array binding signal (z-score): 1.69
[2]
  glycan array binding signal (z-score): -0.517
[3]
  glycan array binding signal (z-score): 0.01
[4]
  glycan array binding signal (z-score): 0.95
[5]
  glycan array binding signal (z-score): 1.36
[6]
  glycan array binding signal (z-score): 1.22
[7]
  glycan array binding signal (z-score): 1.97
[8]
  glycan array binding signal (z-score): 2.27
[9]
  glycan array binding signal (z-score): 0.42
[10]
  glycan array binding signal (z-score): -0.095
[11]
  glycan array binding signal (z-score): 2.04
[12]
  glycan array binding signal (z-score): 1.39
[13]
  glycan array binding signal (z-score): -0.831
[14]
  glycan array binding signal (z-score): 0.001
[15]
  glycan array binding signal (z-score): 1.96
[16]
  glycan array binding signal (z-score): -0.025
[17]
  glycan array binding signal (z-score): -0.704
[18]
  glycan array binding signal (z-score): -0.02
[19]
  glycan array binding signal (z-score): -0.32
[20]
  glycan array binding signal (z-score): -0.389
[21]
  glycan array binding signal (z-score): -1.99
[22]
  glycan array binding signal (z-score): -1.93
[23]
  glycan array binding signal (z-score): 0.988
[24]
  glycan array binding signal (z-score): -0.832
[25]
  glycan array binding signal (z-score): 0.229
Gal(b1-4)GlcNAc6P
  glycan array binding signal (z-score): 0.737
Gal(b1-6)Gal
  glycan array binding signal (z-score): -0.213
Gal3S(b1-3)GalNAc
  glycan array binding signal (z-score): 1.79
Gal3S(b1-3)GlcNAc
  glycan array binding signal (z-score): -1.52
[26]
  glycan array binding signal (z-score): -0.845
